According to PMC11600285:
These are yes or no findings as the source states them, for the method shown. Binding seen in cells or lysates may run through a third protein. Some results given as binding are weak or reduced against the parent protein; the word gives no strength. For part of these data: Sequences can lack the tags named with a protein.

Sequences of proteins named here, by UniProt entry; tags and fusion partners are left off.
UniProt P51114: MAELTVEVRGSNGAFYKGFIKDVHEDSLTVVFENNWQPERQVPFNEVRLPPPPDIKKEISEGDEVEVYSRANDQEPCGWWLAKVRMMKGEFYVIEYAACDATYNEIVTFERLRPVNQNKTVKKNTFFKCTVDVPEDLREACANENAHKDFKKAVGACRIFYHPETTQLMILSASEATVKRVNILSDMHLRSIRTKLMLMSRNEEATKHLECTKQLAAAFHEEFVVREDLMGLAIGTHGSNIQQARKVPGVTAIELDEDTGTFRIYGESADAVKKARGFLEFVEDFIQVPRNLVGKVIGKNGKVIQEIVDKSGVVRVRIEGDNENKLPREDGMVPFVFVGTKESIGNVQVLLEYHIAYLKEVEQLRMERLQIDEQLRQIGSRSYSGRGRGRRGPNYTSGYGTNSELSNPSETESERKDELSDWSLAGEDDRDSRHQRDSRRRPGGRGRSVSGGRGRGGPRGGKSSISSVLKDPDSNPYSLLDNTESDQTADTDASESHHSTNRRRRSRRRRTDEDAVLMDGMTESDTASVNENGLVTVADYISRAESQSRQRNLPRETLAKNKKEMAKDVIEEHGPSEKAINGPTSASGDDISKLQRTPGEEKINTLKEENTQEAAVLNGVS

T1: Kinesin family member C1 (KIFC1) (human (endogenous in human STS cell lines)) (UniProt Q9BW19)
T1 sequence: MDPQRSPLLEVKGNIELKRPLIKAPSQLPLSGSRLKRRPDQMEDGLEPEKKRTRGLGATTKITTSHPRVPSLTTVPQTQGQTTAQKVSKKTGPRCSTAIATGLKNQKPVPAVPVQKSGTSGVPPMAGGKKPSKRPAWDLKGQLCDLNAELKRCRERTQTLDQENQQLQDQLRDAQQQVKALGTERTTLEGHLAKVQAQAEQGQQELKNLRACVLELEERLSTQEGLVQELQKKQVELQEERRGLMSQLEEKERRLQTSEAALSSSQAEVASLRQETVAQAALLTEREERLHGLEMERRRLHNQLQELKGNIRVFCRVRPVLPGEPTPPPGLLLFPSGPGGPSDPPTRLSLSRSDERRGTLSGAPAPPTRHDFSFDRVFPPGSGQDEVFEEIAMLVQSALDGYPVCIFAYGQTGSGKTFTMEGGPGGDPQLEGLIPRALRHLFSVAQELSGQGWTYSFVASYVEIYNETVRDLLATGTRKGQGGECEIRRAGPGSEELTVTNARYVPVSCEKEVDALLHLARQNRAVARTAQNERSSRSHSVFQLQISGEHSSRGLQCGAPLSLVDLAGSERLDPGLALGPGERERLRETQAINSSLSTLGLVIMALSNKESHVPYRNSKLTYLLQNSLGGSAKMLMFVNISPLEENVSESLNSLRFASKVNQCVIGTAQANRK

T2: KIFC1-Flag (human) (UniProt Q9BW19)
T2 sequence: T1 sequence

B1: Kinesin family member C1 (KIFC1) (protein, UniProt Q9BW19 1-673)
chain: T1 sequence

What was measured:
[1] = molecular target: T1, Kinesin family member C1 (KIFC1) (human (endogenous in human STS cell lines)); experiment: co-IP; endogenous proteins; cells lysed at 4 °C in IP lysis buffer, supernatant incubated with 2 µg/mg specific primary antibody overnight at 4 °C, Western blot (Figure 6A)
[2] = molecular target: T2, KIFC1-Flag (human); experiment: co-IP; exogenous: lysates of KIFC1-Flag or FXR1-Flag-transfected SK-LMS-1 cells immunoprecipitated, Western blot (Figure 6B)
[3] = molecular target: FXR1-Flag (human) (UniProt P51114); experiment: as above

Molecule | binding [1] | binding [2] | binding [3]
FXR1 (from UniProt P51114 1-621) | binds | binds | 
B1 |  |  | binds
